Assay results reported in the M2OR odorant receptor database.
The list shows a part of the results. Calls are pooled over several reports, among them a noisy single-well screen.

The molecules below were run on T1, OR8K5. Details: stereoisomer not certain.
T1 sequence (whole entry): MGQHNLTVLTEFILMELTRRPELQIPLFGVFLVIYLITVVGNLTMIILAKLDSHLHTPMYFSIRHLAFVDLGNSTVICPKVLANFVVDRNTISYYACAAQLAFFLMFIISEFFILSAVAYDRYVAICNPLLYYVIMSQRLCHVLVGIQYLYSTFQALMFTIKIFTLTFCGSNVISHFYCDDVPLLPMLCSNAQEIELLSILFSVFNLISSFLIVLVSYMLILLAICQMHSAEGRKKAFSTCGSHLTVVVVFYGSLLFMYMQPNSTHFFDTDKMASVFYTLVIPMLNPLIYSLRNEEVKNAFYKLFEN
Outline: (§1)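 Transient luciferase assays in mammalian cell lines were common, though methods varied by source. The values come from published papers and their supplementary material, with extra details from the original authors when needed. Responsive refers to a measured signal the original authors judged statistically different from baseline, and non-responsive (inactive) to the remainder.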
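Further: active if original authors judged signal statistically different from baseline.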

Odorant receptor agonist call, inactive:
CC(C)C(=O)O, C=CCc1ccc(OC)c(OC)c1, CC=Cc1ccc(O)c(OC)c1, C=CCSCC=C, CC(C)CCC(=O)O, O=C1CCCCCCCCCCCCCCO1, CCCCCCCC=CC=O, CC12C=CCC1C1CCC3=CC(=O)CCC3(C)C1CC2 (stereo not given), CCCCCCCCCC=O, c1cnccn1, CC(C)=CCCC(C)=CC=O, CCCCCOC(C)=O, CC12CCC(CC1)C(C)(C)O2, COc1cc(C=O)ccc1O, CC(C)C=O, CCCCO, C=CC(C)(O)CCC=C(C)C (stereo not given), CCCC(=O)O, CCCCCC(C)=O, CC(C)CC(=O)O, CC1=CCC(C(C)(C)O)CC1 (stereo not given), CCC=CCCO, CC1CCC(C(C)C)C(O)C1 (stereo not given), CCCCCCCOC(C)=O, COc1cc(C)ccc1O

These molecules were tested on T2, OR8S1. Details: stereoisomer not certain.
T2 sequence (whole entry): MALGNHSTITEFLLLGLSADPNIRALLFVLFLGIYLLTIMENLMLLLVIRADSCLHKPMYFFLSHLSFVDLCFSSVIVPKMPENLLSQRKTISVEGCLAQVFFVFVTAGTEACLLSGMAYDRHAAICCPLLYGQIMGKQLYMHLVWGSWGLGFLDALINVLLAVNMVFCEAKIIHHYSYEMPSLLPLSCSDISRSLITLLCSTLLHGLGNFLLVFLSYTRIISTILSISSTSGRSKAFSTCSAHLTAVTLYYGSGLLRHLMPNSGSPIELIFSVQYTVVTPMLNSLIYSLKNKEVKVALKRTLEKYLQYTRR
Outline: as §1

Odorant receptor agonist call, inactive:
CC(C)C(=O)O, C=CCc1ccc(OC)c(OC)c1, CC=Cc1ccc(O)c(OC)c1, C=CCSCC=C, CC(C)CCC(=O)O, O=C1CCCCCCCCCCCCCCO1, CCCCCCCC=CC=O, CC12C=CCC1C1CCC3=CC(=O)CCC3(C)C1CC2 (stereo not given), CCCCCCCCCC=O, c1cnccn1, CC(C)=CCCC(C)=CC=O, CCCCCOC(C)=O, CC12CCC(CC1)C(C)(C)O2, COc1cc(C=O)ccc1O, CC(C)C=O, CCCCO, C=CC(C)(O)CCC=C(C)C (stereo not given), CCCC(=O)O, CCCCCC(C)=O, CC(C)CC(=O)O, CC1=CCC(C(C)(C)O)CC1 (stereo not given), CCC=CCCO, CC1CCC(C(C)C)C(O)C1 (stereo not given), CCCCCCCOC(C)=O, COc1cc(C)ccc1O

These molecules were tested on T3, OR8U1. Details: stereoisomer not certain.
T3 sequence (whole entry): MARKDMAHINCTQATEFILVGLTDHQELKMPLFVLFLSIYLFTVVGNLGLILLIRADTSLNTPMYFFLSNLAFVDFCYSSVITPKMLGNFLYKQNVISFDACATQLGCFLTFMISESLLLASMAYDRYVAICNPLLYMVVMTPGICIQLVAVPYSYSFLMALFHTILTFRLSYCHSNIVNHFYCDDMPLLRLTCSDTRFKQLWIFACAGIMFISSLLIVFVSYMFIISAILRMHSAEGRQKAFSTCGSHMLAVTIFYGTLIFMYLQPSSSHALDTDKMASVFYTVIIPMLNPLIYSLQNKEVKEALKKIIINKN
Outline: as §1

Odorant receptor agonist call, inactive:
CC(C)C(=O)O, C=CCc1ccc(OC)c(OC)c1, CC=Cc1ccc(O)c(OC)c1, C=CCSCC=C, CC(C)CCC(=O)O, O=C1CCCCCCCCCCCCCCO1, CCCCCCCC=CC=O, CC12C=CCC1C1CCC3=CC(=O)CCC3(C)C1CC2 (stereo not given), CCCCCCCCCC=O, c1cnccn1, CC(C)=CCCC(C)=CC=O, CCCCCOC(C)=O, CC12CCC(CC1)C(C)(C)O2, COc1cc(C=O)ccc1O, CC(C)C=O, CCCCO, C=CC(C)(O)CCC=C(C)C (stereo not given), CCCC(=O)O, CCCCCC(C)=O, CC(C)CC(=O)O, CC1=CCC(C(C)(C)O)CC1 (stereo not given), CCC=CCCO, CC1CCC(C(C)C)C(O)C1 (stereo not given), CCCCCCCOC(C)=O, COc1cc(C)ccc1O
